PubChem BioAssay AID1671195, Yale University – 2021

Screen: 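Knockdowns that increase or decrease uptake of fluorescent LDL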 (primary screen)
Cells: human Huh7 hepatoma cells
Reagent: siRNA pool against human genes, 18 nM
Timing: about 2 to 2.5 days of knockdown, then 8 h LDL uptake
Challenge: DiI-labelled LDL at 30 µg/ml for 8 h, in lipoprotein-deficient serum medium
Detection: 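Per-cell DiI-LDL intensity by automated imaging; well means scaled to the plate median and given as a robust z-score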
Direction: robust z-score: higher = more LDL uptake after knockdown
Active means: 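Active when two or more replicates show a robust z-score above 2 or below -2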
This is one part, drawn at random, of about 22,000 deposited reagents. About 1,510 of them (6.9%) count as active. 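Active includes knockdowns raising or lowering LDL uptake; positive z-scores mean more uptake, negative mean less.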 Reagents against one gene are numbered here.

EBLN2 (endogenous Bornavirus like nucleoprotein 2) | robust z-score, replicate 1: -0.846; robust z-score, replicate 2: -0.826; robust z-score, replicate 3: 0.214; activity call: inactive
MAPK9 (mitogen-activated protein kinase 9) | robust z-score, replicate 1: 0.582; robust z-score, replicate 2: 2.99; robust z-score, replicate 3: 2.97; activity call: active
LOC392726 (retired record) | robust z-score, replicate 1: -0.502; robust z-score, replicate 2: -0.433; robust z-score, replicate 3: -0.828; activity call: inactive
TLR5 (toll like receptor 5) | robust z-score, replicate 1: 1.13; robust z-score, replicate 2: 1.17; robust z-score, replicate 3: 1.25; activity call: inactive
PRSS54 (serine protease 54) | robust z-score, replicate 1: -1.32; robust z-score, replicate 2: -1.55; robust z-score, replicate 3: -1.64; activity call: inactive
SMG5 (SMG5 nonsense mediated mRNA decay factor) | robust z-score, replicate 1: -0.0208; robust z-score, replicate 2: 0.476; robust z-score, replicate 3: -0.203; activity call: inactive
FGF13 (fibroblast growth factor 13) #1 | robust z-score, replicate 1: 0.454; robust z-score, replicate 2: 1.3; robust z-score, replicate 3: 0.59; activity call: inactive
FGF13 (fibroblast growth factor 13) #2 | robust z-score, replicate 1: 0.0654; robust z-score, replicate 2: 0.371; robust z-score, replicate 3: 0.647; activity call: inactive
CBLN4 (cerebellin 4 precursor) | robust z-score, replicate 1: 1.01; robust z-score, replicate 2: 1.08; robust z-score, replicate 3: 0.415; activity call: inactive
UBA52 (ubiquitin A-52 residue ribosomal protein fusion product 1) | robust z-score, replicate 1: -1.56; robust z-score, replicate 2: -1.76; robust z-score, replicate 3: -2.09; activity call: inactive
PLEKHA8P1 (pleckstrin homology domain containing A8 pseudogene 1) | robust z-score, replicate 1: 5.01; robust z-score, replicate 2: 4.49; robust z-score, replicate 3: 0.522; activity call: active
ZNF654 (zinc finger protein 654) | robust z-score, replicate 1: -0.894; robust z-score, replicate 2: -0.224; robust z-score, replicate 3: -0.0102; activity call: inactive
FLJ45966 (retired record) | robust z-score, replicate 1: -0.0466; robust z-score, replicate 2: -0.172; robust z-score, replicate 3: 0.235; activity call: inactive
CEACAM21 (CEA cell adhesion molecule 21) | robust z-score, replicate 1: 0.226; robust z-score, replicate 2: 0.522; robust z-score, replicate 3: 0.807; activity call: inactive
CEACAM16 (CEA cell adhesion molecule 16, tectorial membrane component) | robust z-score, replicate 1: 2.9; robust z-score, replicate 2: 3.13; robust z-score, replicate 3: 2.85; activity call: active
FIS1 (fission, mitochondrial 1) | robust z-score, replicate 1: -0.0801; robust z-score, replicate 2: 0.633; robust z-score, replicate 3: -2.46; activity call: inactive
LTO1 (LTO1 maturation factor of ABCE1) | robust z-score, replicate 1: 2.3; robust z-score, replicate 2: 2.33; robust z-score, replicate 3: 1.97; activity call: active
LOC388508 (retired record) | robust z-score, replicate 1: -1.1; robust z-score, replicate 2: -1.42; robust z-score, replicate 3: -1.4; activity call: inactive
PLPPR1 (phospholipid phosphatase related 1) | robust z-score, replicate 1: 0.557; robust z-score, replicate 2: -0.208; robust z-score, replicate 3: 1.04; activity call: inactive
TCERG1 (transcription elongation regulator 1) | robust z-score, replicate 1: -1.33; robust z-score, replicate 2: -1.29; robust z-score, replicate 3: -1.62; activity call: inactive
APOBEC4 | robust z-score, replicate 1: -0.13; robust z-score, replicate 2: -0.6; robust z-score, replicate 3: -0.995; activity call: inactive
LINC01104 (long independently transcribed non-coding RNA 1104) | robust z-score, replicate 1: 0.75; robust z-score, replicate 2: 0.0429; robust z-score, replicate 3: 0.644; activity call: inactive
ACTN1 (actinin alpha 1) | robust z-score, replicate 1: 1.63; robust z-score, replicate 2: 2.03; robust z-score, replicate 3: 0.671; activity call: inactive
USP20 (ubiquitin specific peptidase 20) | robust z-score, replicate 1: 0.399; robust z-score, replicate 2: 0.211; robust z-score, replicate 3: 0.882; activity call: inactive
RDH11 (retinol dehydrogenase 11) | robust z-score, replicate 1: -0.589; robust z-score, replicate 2: -0.363; robust z-score, replicate 3: -0.203; activity call: inactive
KRTAP13-2 (keratin associated protein 13-2) | robust z-score, replicate 1: 1.16; robust z-score, replicate 2: 1.56; robust z-score, replicate 3: 1.15; activity call: inactive
GTF2I (general transcription factor IIi) | robust z-score, replicate 1: 0.185; robust z-score, replicate 2: 0.595; robust z-score, replicate 3: 1.15; activity call: inactive
WNT10B (Wnt family member 10B) | robust z-score, replicate 1: 0.0587; robust z-score, replicate 2: -0.415; robust z-score, replicate 3: -1.13; activity call: inactive
BRAP (BRCA1 associated protein) | robust z-score, replicate 1: 1.92; robust z-score, replicate 2: -0.158; robust z-score, replicate 3: 0.51; activity call: inactive
RPS6KL1 (ribosomal protein S6 kinase like 1) | robust z-score, replicate 1: -0.134; robust z-score, replicate 2: -0.0568; robust z-score, replicate 3: -0.187; activity call: inactive

Records above called active:
MAPK9 (mitogen-activated protein kinase 9) | robust z-score, replicate 1: 0.582; robust z-score, replicate 2: 2.99; robust z-score, replicate 3: 2.97; activity call: active
PLEKHA8P1 (pleckstrin homology domain containing A8 pseudogene 1) | robust z-score, replicate 1: 5.01; robust z-score, replicate 2: 4.49; robust z-score, replicate 3: 0.522; activity call: active
CEACAM16 (CEA cell adhesion molecule 16, tectorial membrane component) | robust z-score, replicate 1: 2.9; robust z-score, replicate 2: 3.13; robust z-score, replicate 3: 2.85; activity call: active
LTO1 (LTO1 maturation factor of ABCE1) | robust z-score, replicate 1: 2.3; robust z-score, replicate 2: 2.33; robust z-score, replicate 3: 1.97; activity call: active
